Some entries share one result that the patent states for a list of compounds. At least one structure is not confirmed: it was looked up by name or label, or the drawing left a doubt.
Tests used:
[1] = Actinide decorporation in mice after iv 233U(VI) injection, single or combined HOPO ligands; assay type: in vivo, Swiss-Weber mice; settings: oral treatment at 24 h
Method: (§1) Ligand Combination. […] Tetradentate 5-LIO(Me-3,2-HOPO), HOPO (2), is structurally suitable for chelating Np(V) and U(VI). Treatment is likely to be delayed in human contamination with dispersed radionuclides. Those conditions were approached, using mice, by ligand injection ip at 24 h or oral administration at 1 or 24 h after an iv actinide injection. Dosages of (1) and (2) were, respectively, 30 and 100 μmolkg^−1 ip and 100 and 200 μmolkg^−1 oral. Because mixtures of radionuclides may be released, (1) and (2) were combined to take advantage of their differing efficacies for the actinides. Dosages of combined (1) and (2) were, respectively, 30 plus […] injected ip and […] oral. Actinides in all mouse tissues and excreta were determined using published methods.
(§2) Tetradentate 5-LIO(Me-3,2-HOPO), HOPO (2), is structurally suitable for chelating Np(V) and U(VI). Treatment is likely to be delayed in human contamination with dispersed radionuclides. Those conditions were approached, using mice, by ligand injection ip at 24 h or oral administration at 1 or 24 h after an iv actinide injection. Dosages of (1) and (2) were, respectively, 30 and 100 μmolkg-1 ip and 100 and 200 μmolkg-1 oral. […] Actinides in all mouse tissues and excreta were determined using published methods. […]

[2] = Actinide decorporation in mice after iv 237Np(V) injection, single or combined HOPO ligands; assay type: in vivo, Swiss-Weber mice; settings: oral treatment at 24 h
Method: as §1, §2

SMILES: Cn1ccc(C(=O)NCCOCCNC(=O)c2ccn(C)c(=O)c2O)c(O)c1=O [5-LIO(Me-3,2-HOPO)]
- 24-48 h post-treatment excretion of U(VI) [1]: 2-2.5 times control
- 24-48 h post-treatment excretion of Np(V) [2]: 2-2.5 times control

— US20120214843A1, “Combination Treatment of Hydroxpyridonate Actinide/Lanthanide Decorporation Agents” (priority 2009, published 2012)
